Values from PubChem BioAssay AID1508588 (Peter MacCallum Cancer Centre, 2020)
Screen: 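Knock-downs boosting vemurafenib effects on melanoma cell growth or lactate release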 (primary screen). Cells: human WM266.4 melanoma cells (BRAF V600 mutant). Knock-down reagent: siRNA pool against human genes, 40 nM. Duration: 96 h from transfection to read-out. Conditions: vemurafenib 300 nM (about IC25), added 48 h after transfection, for 48 h; comparison arm got DMSO vehicle only. Measured: 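Ratios to non-targeting siRNA for cell gain, counted as DAPI nuclei after minus before drug and averaged over two replicates, and for absorbance-read medium lactate per cell; both binned into fold-change classes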. Reading the numbers: cell gain with vemurafenib: higher = more cell gain than with non-targeting siRNA; lactate per cell with vemurafenib: higher = more lactate made per cell. Call rule: 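Enhancement is called by pairing each knock-down's vehicle-arm and drug-arm fold-change classes for viability or glycolysis; which class combinations qualify is not given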. Calls: active = enhances vemurafenib effect; inactive = no enhancement seen.
The whole screen tested about 18,000 reagents; below is an unselected part. In the full data, 790 (4.4%) are marked active. 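Calls rest on a combination of fold-change classes in drug and vehicle arms, not all shown here.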 No sequences are given here.

| target | cell gain with vemurafenib | lactate per cell with vemurafenib | Outcome |
| --- | --- | --- | --- |
| TAGLN3 (GeneID 29114) | 0.53 | 1.58 | inactive |
| HBEGF (GeneID 1839) | 0.8 | 0.7 | inactive |
| OR4N4 (GeneID 283694) | 0.41 | 0.86 | inactive |
| TNRC6B (GeneID 23112) | 0.66 | 1.14 | inactive |
| UTP4 (GeneID 84916) | 0.97 | 0.78 | inactive |
| PRKAR1A (GeneID 5573) | 0.6 | 1.08 | inactive |
| MC5R (GeneID 4161) | 0.62 | 1 | inactive |
| TEKT4 (GeneID 150483) | 0.82 | 0.73 | inactive |
| LTB (GeneID 4050) | 0.75 | 1.14 | inactive |
| DPRX (GeneID 503834) | 0.78 | 0.7 | inactive |
| ASAP2 (GeneID 8853) | 1.37 | 0.56 | inactive |
| RAB5C (GeneID 5878) | 0.68 | 0.88 | inactive |
| SWSAP1 (GeneID 126074) | 0.77 | 1.75 | inactive |
| STING1 (GeneID 340061) | 0.3 | 1.05 | inactive |
| CASP10 (GeneID 843) | 0.47 | 0.2 | inactive |
| PSG11 (GeneID 5680) | 0.69 | 0.73 | inactive |
| KPRP (GeneID 448834) | 0.02 | 1.47 | inactive |
| USP48 (GeneID 84196) | 0.97 | 0.68 | inactive |
| MAGEA2 (GeneID 4101) | 0.25 | 0.77 | inactive |
| OXR1 (GeneID 55074) | 0.73 | 0.87 | inactive |
| SERTAD1 (GeneID 29950) | 0.59 | 1.62 | inactive |
| ADAP1 (GeneID 11033) | 0.23 | 0.65 | inactive |
| PCMT1 (GeneID 5110) | 1.06 | 0.51 | inactive |
| LIPH (GeneID 200879) | 1.1 | 0.68 | inactive |
| UTP14C (GeneID 9724) | 0.69 | 0.77 | inactive |
| ARRDC2 (GeneID 27106) | 0.27 | 2.33 | inactive |
| H1-7 (GeneID 341567) | 0.76 | 0.69 | inactive |
| DPH2 (GeneID 1802) | 0.25 | 1.11 | inactive |
| ACSS1 (GeneID 84532) | 0.27 | 0.98 | inactive |
| TELO2 (GeneID 9894) | 0.43 | 1.3 | inactive |
| RAPGEF6 (GeneID 51735) | 0.41 | 1.21 | inactive |
| ZNF483 (GeneID 158399) | 0.65 | 0.56 | inactive |
| FUT2 (GeneID 2524) | 0.93 | 1.18 | inactive |
| PNPLA6 (GeneID 10908) | 0.6 | 1.29 | inactive |
| ZBTB17 (GeneID 7709) | 0.92 | 0.47 | inactive |
| RNH1 (GeneID 6050) | 0.68 | 0.82 | inactive |
| ZNF134 (GeneID 7693) | 0.65 | 0.42 | inactive |
| CASP1 (GeneID 834) | 0.59 | 0.87 | inactive |
| FSTL4 (GeneID 23105) | 0.62 | 0.9 | inactive |
| CPA1 (GeneID 1357) | 0.45 | 0.44 | active |
| PMAIP1 (GeneID 5366) | 0.65 | 0.82 | inactive |
| ZNF790 (GeneID 388536) | 0.67 | 1.01 | inactive |
| NLGN3 (GeneID 54413) | 0.84 | 0.97 | inactive |
| NHSL3 (GeneID 57648) | 0.95 | 1.26 | inactive |
| RNPEPL1 (GeneID 57140) | 0.58 | 0.87 | inactive |
| CNPPD1 (GeneID 27013) | 0.68 | 0.76 | inactive |
| SLC67A1 (GeneID 5002) | 0.71 | 0.81 | inactive |
| ZSWIM9 (GeneID 374920) | 0.47 | 0.84 | inactive |

7 entries already listed, ordered by “lactate per cell with vemurafenib”, ascending.
| target | cell gain with vemurafenib | lactate per cell with vemurafenib | Outcome |
| --- | --- | --- | --- |
| PCMT1 (GeneID 5110) | 1.06 | 0.51 | inactive |
| ADAP1 (GeneID 11033) | 0.23 | 0.65 | inactive |
| USP48 (GeneID 84196) | 0.97 | 0.68 | inactive |
| LIPH (GeneID 200879) | 1.1 | 0.68 | inactive |
| MAGEA2 (GeneID 4101) | 0.25 | 0.77 | inactive |
| OXR1 (GeneID 55074) | 0.73 | 0.87 | inactive |
| SERTAD1 (GeneID 29950) | 0.59 | 1.62 | inactive |

Further reagents:
| target | cell gain with vemurafenib | lactate per cell with vemurafenib | Outcome |
| --- | --- | --- | --- |
| NMS (GeneID 129521) | 0.32 | 2.98 | inactive |
| ROBO3 (GeneID 64221) | -0.08 | 2.36 | inactive |
| THNSL2 (GeneID 55258) | 0.55 | 1.15 | inactive |
| IRS2 (GeneID 8660) | 0.36 | 1.04 | inactive |
| UBE2I (GeneID 7329) | 0.11 | 0.92 | inactive |
| SYNC (GeneID 81493) | -0.02 | 2.07 | inactive |
| INPP5D (GeneID 3635) | 0.74 | 1.35 | inactive |
| TCEAL7 (GeneID 56849) | 0.82 | 0.61 | inactive |
| KAZALD1 (GeneID 81621) | 0.42 | 0.55 | inactive |
| COG5 (GeneID 10466) | 0.93 | 0.78 | inactive |
| SLC38A4 (GeneID 55089) | 0.63 | 0.84 | inactive |
| NSUN2 (GeneID 54888) | 0.48 | 0.59 | active |
| TCF21 (GeneID 6943) | 0.07 | 1.95 | inactive |
| LRRC55 (GeneID 219527) | 0.84 | 0.59 | inactive |
| BTBD2 (GeneID 55643) | 0.65 | 1.52 | inactive |
| YIPF1 (GeneID 54432) | 1.01 | 0.74 | inactive |
| CCDC27 (GeneID 148870) | 0.89 | 0.52 | inactive |
| DGKA (GeneID 1606) | 0.43 | 0.74 | inactive |
| KLHL1 (GeneID 57626) | 0.66 | 0.12 | inactive |
| LOC642219 (retired record) (GeneID 642219) | 1.03 | 0.72 | inactive |
| SDCBP (GeneID 6386) | 0.6 | 0.32 | inactive |
| DHX15 (GeneID 1665) | 0.61 | 0.66 | inactive |
| UPK1A (GeneID 11045) | 0.07 | 0.8 | inactive |
| IFITM1 (GeneID 8519) | 0.69 | 0.52 | inactive |
| LCE5A (GeneID 254910) | 0.18 | 0.77 | inactive |
| FMO2 (GeneID 2327) | 0.78 | 0.6 | inactive |
| ZYG11B (GeneID 79699) | 0.83 | 0.74 | inactive |
| SEZ6 (GeneID 124925) | 0.78 | 1.4 | inactive |
| BEGAIN (GeneID 57596) | 0.92 | 0.88 | inactive |
| RNF38 (GeneID 152006) | 1.01 | 0.74 | inactive |
| RNF14 (GeneID 9604) | 0.73 | 0.96 | inactive |
| MYO15A (GeneID 51168) | 0.76 | 1.23 | inactive |
| DXO (GeneID 1797) | 0.29 | 0.28 | inactive |
| TRIM50 (GeneID 135892) | 0.73 | 0.84 | inactive |
| PRDM14 (GeneID 63978) | 0.9 | 0.71 | inactive |
| PEX11G (GeneID 92960) | -0.1 | -0.61 | inactive |
